Measurements taken from the supplement of paper PMC10849652.
Some of the results follow.

Protein sequences, listed by entry. Tags and fused reporters are not part of them. Lines headed by an entry give the natural chain unless they say otherwise; changes in a name come on top.
UniProt Q03154: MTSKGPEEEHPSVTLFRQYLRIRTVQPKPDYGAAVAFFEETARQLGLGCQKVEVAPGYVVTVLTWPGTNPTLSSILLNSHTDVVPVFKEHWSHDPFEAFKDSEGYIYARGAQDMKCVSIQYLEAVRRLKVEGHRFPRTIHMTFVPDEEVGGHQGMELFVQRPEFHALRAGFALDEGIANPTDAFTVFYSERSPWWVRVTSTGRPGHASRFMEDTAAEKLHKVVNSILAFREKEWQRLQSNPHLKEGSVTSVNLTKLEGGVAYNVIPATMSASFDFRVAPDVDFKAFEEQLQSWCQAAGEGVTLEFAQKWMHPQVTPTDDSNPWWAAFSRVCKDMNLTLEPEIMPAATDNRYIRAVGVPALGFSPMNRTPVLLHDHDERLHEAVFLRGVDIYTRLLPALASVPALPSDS
UniProt Q9UG63: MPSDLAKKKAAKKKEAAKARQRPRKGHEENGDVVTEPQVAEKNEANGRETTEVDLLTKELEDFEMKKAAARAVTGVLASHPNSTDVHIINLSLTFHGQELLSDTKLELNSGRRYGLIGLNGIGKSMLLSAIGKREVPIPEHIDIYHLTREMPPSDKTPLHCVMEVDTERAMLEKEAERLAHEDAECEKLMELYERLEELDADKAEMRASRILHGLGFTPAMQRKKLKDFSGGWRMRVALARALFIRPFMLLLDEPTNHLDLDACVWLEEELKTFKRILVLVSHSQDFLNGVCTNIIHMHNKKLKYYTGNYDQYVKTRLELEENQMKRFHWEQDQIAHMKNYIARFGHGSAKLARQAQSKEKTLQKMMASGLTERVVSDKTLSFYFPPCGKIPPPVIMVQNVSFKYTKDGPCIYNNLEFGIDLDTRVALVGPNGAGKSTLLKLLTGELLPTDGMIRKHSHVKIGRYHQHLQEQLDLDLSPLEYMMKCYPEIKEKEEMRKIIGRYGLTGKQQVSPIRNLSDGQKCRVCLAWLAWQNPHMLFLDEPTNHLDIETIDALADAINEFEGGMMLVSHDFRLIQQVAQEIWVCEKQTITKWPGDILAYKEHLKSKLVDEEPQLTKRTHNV
UniProt P53396: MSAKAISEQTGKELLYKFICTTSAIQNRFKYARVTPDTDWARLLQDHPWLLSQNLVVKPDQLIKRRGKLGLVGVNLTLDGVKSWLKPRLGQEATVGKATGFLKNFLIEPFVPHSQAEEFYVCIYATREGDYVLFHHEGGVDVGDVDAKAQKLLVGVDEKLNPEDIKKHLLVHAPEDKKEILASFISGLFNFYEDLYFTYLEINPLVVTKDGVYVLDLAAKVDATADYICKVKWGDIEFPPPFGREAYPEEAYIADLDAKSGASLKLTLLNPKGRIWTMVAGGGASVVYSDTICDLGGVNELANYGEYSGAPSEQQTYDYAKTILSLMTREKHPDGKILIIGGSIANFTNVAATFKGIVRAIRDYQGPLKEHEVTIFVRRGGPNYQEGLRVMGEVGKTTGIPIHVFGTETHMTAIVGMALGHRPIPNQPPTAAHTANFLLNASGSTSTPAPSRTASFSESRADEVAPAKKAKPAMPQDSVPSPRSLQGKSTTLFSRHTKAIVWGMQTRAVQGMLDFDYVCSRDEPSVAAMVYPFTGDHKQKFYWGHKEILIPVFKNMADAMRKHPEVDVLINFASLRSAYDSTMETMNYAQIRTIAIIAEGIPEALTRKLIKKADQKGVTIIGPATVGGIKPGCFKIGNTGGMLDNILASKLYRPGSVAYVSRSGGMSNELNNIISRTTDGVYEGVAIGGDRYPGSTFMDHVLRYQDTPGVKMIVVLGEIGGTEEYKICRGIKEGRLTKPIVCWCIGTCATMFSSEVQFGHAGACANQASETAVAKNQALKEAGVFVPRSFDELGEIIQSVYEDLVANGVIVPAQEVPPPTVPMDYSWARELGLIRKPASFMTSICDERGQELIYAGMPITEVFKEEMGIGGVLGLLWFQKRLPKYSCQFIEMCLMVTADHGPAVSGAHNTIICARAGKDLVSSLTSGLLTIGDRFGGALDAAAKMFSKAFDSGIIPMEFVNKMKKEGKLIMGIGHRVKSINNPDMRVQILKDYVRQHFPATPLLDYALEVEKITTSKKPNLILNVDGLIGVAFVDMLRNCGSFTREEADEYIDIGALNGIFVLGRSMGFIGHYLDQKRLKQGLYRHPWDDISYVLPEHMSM
UniProt Q9H568: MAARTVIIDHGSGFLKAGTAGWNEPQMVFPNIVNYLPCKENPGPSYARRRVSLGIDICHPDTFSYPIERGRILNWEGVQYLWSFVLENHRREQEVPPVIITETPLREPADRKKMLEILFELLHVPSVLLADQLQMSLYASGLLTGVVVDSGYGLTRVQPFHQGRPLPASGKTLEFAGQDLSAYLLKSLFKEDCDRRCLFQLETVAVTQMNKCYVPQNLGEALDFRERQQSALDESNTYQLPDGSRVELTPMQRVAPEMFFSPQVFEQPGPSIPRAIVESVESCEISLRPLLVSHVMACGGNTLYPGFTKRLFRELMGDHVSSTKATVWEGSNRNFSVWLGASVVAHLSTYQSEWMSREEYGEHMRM
UniProt P42765: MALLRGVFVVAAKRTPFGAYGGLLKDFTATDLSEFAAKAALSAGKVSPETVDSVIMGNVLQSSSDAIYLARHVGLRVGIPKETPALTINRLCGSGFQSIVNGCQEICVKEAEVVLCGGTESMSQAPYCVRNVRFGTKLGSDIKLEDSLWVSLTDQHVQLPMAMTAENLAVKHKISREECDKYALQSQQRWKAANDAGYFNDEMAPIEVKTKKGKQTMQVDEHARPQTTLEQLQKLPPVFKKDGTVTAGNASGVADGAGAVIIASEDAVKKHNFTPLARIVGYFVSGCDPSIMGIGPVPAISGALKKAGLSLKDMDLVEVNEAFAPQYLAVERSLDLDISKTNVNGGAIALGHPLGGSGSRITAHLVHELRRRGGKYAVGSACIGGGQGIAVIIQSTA
UniProt Q9NZ32, whole entry, looked up: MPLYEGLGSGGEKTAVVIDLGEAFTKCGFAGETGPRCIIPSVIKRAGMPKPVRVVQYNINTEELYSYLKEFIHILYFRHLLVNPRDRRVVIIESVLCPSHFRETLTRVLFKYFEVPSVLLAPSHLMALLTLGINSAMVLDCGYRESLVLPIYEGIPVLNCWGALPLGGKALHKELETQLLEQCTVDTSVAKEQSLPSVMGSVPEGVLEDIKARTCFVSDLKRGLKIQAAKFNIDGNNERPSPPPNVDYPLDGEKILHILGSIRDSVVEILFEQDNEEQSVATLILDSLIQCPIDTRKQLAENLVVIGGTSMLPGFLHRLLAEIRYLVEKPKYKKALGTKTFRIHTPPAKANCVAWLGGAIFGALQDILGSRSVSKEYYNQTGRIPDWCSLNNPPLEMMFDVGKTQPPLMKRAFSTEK
UniProt Q8N2K0: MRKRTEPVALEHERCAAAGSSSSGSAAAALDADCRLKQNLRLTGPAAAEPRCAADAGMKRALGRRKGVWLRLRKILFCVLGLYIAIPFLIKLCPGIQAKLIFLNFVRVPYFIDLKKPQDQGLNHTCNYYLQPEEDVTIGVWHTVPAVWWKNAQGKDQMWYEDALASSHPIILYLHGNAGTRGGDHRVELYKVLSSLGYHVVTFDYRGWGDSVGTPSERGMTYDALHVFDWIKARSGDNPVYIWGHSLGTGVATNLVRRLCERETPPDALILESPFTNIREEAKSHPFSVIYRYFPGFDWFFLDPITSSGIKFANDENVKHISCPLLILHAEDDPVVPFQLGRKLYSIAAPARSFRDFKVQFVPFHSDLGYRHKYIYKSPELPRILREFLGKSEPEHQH
UniProt Q8NE71: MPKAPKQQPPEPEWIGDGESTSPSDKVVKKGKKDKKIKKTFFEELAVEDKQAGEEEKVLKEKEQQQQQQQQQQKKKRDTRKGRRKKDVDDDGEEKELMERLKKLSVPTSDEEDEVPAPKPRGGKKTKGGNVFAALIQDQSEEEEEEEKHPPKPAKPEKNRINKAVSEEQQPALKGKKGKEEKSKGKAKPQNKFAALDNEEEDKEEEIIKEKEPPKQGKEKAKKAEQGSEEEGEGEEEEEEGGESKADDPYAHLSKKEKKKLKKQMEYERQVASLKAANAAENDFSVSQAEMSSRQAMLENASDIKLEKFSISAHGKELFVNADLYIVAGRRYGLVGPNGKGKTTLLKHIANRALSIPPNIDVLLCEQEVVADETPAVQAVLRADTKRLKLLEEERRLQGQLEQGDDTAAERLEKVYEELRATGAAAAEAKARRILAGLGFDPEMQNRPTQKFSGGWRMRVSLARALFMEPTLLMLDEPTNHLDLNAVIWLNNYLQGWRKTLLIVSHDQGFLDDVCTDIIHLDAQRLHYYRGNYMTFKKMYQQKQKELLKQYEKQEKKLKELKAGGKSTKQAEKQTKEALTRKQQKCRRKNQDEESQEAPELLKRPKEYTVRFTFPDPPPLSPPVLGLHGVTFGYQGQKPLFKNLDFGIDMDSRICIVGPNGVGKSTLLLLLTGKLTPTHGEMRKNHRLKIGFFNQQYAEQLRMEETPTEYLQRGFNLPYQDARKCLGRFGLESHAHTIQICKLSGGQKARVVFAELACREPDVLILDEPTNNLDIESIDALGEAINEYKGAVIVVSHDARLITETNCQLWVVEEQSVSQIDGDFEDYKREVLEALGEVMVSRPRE
UniProt Q9NRN7: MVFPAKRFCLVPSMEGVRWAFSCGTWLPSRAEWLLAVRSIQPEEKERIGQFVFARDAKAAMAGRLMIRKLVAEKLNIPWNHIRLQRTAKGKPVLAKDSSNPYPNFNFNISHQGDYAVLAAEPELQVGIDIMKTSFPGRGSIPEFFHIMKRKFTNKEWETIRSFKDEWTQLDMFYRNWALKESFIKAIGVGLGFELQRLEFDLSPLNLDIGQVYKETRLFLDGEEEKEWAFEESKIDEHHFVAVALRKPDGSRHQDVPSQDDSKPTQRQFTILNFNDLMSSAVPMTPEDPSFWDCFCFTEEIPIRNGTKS
UniProt Q13443: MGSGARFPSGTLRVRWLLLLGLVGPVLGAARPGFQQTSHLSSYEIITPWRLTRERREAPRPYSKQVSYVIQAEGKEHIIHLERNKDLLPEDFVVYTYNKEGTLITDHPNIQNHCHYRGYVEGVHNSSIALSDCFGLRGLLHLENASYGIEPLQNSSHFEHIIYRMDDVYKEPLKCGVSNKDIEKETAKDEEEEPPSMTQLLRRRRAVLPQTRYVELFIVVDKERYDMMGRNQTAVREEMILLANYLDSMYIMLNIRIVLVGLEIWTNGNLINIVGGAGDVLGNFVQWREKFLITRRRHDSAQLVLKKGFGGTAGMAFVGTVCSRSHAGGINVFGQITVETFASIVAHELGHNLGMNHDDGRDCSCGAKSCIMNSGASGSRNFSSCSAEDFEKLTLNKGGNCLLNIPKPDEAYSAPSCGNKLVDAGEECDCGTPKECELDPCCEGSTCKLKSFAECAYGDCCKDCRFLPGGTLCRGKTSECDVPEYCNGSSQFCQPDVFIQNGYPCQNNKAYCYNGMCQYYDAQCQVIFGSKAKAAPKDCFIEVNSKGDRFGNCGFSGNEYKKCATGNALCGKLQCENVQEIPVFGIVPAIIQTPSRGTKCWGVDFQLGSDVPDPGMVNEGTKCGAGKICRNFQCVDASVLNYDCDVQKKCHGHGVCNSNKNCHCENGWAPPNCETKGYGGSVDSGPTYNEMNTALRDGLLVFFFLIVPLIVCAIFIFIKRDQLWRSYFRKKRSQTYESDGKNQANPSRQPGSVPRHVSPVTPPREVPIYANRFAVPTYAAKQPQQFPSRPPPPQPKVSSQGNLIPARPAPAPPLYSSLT
UniProt Q9NUB1: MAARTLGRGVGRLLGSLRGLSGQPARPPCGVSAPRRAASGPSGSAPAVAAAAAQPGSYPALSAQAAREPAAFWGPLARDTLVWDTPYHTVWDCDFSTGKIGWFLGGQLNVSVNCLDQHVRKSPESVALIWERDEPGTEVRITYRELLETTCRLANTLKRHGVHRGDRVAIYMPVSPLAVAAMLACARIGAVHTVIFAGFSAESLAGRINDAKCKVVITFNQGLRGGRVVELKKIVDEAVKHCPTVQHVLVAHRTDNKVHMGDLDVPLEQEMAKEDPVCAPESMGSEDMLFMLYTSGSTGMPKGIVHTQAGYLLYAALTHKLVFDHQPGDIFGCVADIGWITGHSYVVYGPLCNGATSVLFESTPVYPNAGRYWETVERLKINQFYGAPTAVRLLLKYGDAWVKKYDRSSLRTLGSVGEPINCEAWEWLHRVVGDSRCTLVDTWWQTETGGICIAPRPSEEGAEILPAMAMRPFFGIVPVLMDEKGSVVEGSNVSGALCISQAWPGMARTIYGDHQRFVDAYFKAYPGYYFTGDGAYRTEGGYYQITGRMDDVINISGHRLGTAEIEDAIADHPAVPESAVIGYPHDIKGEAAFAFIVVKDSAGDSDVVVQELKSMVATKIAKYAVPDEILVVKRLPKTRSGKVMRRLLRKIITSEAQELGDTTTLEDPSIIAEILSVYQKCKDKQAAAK

Experiments:
Assay in all cases: log2 fold change, soluble protein after heating vs DMSO (PISA); higher = thermal stabilisation; K562 cells, 10 uM, 30 min; active = over 0.2 and 3.5 SD of the protein, either way, in both replicates (recomputed)
saracatinib = compound: CN1CCN(CCOc2cc(OC3CCOCC3)c3c(Nc4c(Cl)ccc5c4OCO5)ncnc3c2)CC1 [saracatinib]
In short: (§1)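 Quantification of soluble protein used TMTpro 16plex LC-MS/MS, with channel sums equalised. Samples were the supernatant after 21,000xg for 90 min of pooled aliquots from K562 cells (2×10^6 cells/mL) treated with 10 μM compound for 30 min, heated for 3 min over 48°C-58°C, and extracted in PBS with 0.5% NP-40 at 4°C. Values, from duplicates, describe thermal stability against control samples on a log2 fold-change scale.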

sotrastaurin = compound: CN1CCN(c2nc(C3=C(c4c[nH]c5ccccc45)C(=O)NC3=O)c3ccccc3n2)CC1 [sotrastaurin]
In short: as §1

alvocidib = compound: CN1CC[C@H](c2c(O)cc(O)c3c(=O)cc(-c4ccccc4Cl)oc23)[C@H](O)C1 [alvocidib]
In short: as §1

Tubastatin A = compound: CN1CCc2c(c3ccccc3n2Cc2ccc(C(=O)NO)cc2)C1 [Tubastatin A]
In short: as §1

[1] = compound: CNC(=O)C1=CC=CC=C1NC2=NC(=NC=C2Cl)NC3=C(C=C(C=C3)N4CCOCC4)OC
In short: as §1

defactinib = compound: CNC(=O)c1ccc(Nc2ncc(C(F)(F)F)c(NCc3nccnc3N(C)S(C)(=O)=O)n2)cc1 [defactinib]
In short: as §1

rucaparib = compound: CNCc1ccc(-c2[nH]c3cc(F)cc4c3c2CCNC4=O)cc1 [rucaparib]
In short: as §1

[2] = compound: CNc1nc(-c2ccc3c(N)n[nH]c3c2)cc(N2C[C@@H](C(=O)NC3CCCCC3)CC[C@H]2C)n1
In short: as §1

encorafenib = compound: COC(=O)N[C@@H](C)CNc1nccc(-c2cn(C(C)C)nc2-c2cc(Cl)cc(NS(C)(=O)=O)c2F)n1 [encorafenib]
In short: as §1

[3] = compound: COC(=O)[C@H](CCSC)NC(=O)C1=C(C=C(C=C1)NC[C@H](CS)N)C2=CC=CC=C2
In short: as §1

[4] = compound: COC1=CC=C(C=C1)CN2C=CC3=C2C=C(C=C3)C(=O)NO
In short: as §1

filanesib = compound: CON(C)C(=O)N1N=C(c2cc(F)ccc2F)S[C@@]1(CCCN)c1ccccc1 [filanesib]
In short: as §1

zotarolimus = compound: CO[C@H]1C[C@@H]2CC[C@@H](C)[C@@](O)(O2)C(=O)C(=O)N2CCCC[C@H]2C(=O)O[C@H]([C@H](C)C[C@@H]2CC[C@H](n3cnnn3)[C@H](OC)C2)CC(=O)[C@H](C)/C=C(\C)[C@@H](O)[C@@H](OC)C(=O)[C@H](C)C[C@H](C)/C=C/C=C/C=C/1C [zotarolimus]
In short: as §1

idasanutlin = compound: COc1cc(C(=O)O)ccc1NC(=O)[C@@H]1N[C@@H](CC(C)(C)C)[C@](C#N)(c2ccc(Cl)cc2F)[C@H]1c1cccc(Cl)c1F [idasanutlin]
In short: as §1

alisertib = compound: COc1cc(Nc2ncc3c(n2)-c2ccc(Cl)cc2C(c2c(F)cccc2OC)=NC3)ccc1C(=O)O [alisertib]
In short: as §1

[5] = compound: COc1cc2nc(-c3cc(F)ccc3O)nc(N[C@@H]3CNC[C@H]3C(C)(C)O)c2cc1OC
In short: as §1

gefitinib = compound: COc1cc2ncnc(Nc3ccc(F)c(Cl)c3)c2cc1OCCCN1CCOCC1 [gefitinib]
In short: as §1

[6] = compound: COc1cccc2cc(-c3nc([C@H]4CC[C@H](C(=O)O)CC4)n4ncnc(N)c34)[nH]c12
In short: as §1

lapatinib = compound: CS(=O)(=O)CCNCc1ccc(-c2ccc3ncnc(Nc4ccc(OCc5cccc(F)c5)c(Cl)c4)c3c2)o1 [lapatinib]
In short: as §1

pictilisib = compound: CS(=O)(=O)N1CCN(Cc2cc3nc(-c4cccc5[nH]ncc45)nc(N4CCOCC4)c3s2)CC1 [pictilisib]
In short: as §1

Measured: log2 fold change

ACTA1 (UniProt P68133)
inactive: saracatinib 0.048 | sotrastaurin 0.031 | alvocidib 0.011 | Tubastatin A -0.036 | [1] -0.027 | defactinib 0 | rucaparib -0.02 | [2] -0.065 | encorafenib -0.02 | [3] 0.035 | [4] -0.031 | filanesib 0.011 | zotarolimus 0.007 | idasanutlin -0.018 | alisertib -0.023 | [5] 0.04 | gefitinib 0.003 | [6] 0.059 | lapatinib -0.064 | pictilisib -0.019

ACY1 (UniProt Q03154)
inactive: saracatinib 0.046 | sotrastaurin 0.021 | alvocidib -0.011 | Tubastatin A -0.04 | [1] -0.04 | defactinib -0.009 | rucaparib -0.05 | [2] -0.015 | encorafenib -0.006 | [3] 0.014 | [4] 0.012 | filanesib -0.057 | zotarolimus 0.012 | idasanutlin -0.057 | alisertib -0.047 | [5] 0.043 | gefitinib 0.004 | [6] 0.057 | lapatinib -0.007 | pictilisib 0.09

ABCF2 isoform 2 (UniProt Q9UG63)
inactive: saracatinib -0.007 | sotrastaurin 0.013 | alvocidib 0.018 | Tubastatin A -0.019 | [1] 0.012 | defactinib 0.031 | rucaparib 0.009 | [2] 0 | encorafenib -0.006 | [3] -0.018 | [4] -0.034 | filanesib -0.054 | zotarolimus -0.027 | idasanutlin -0.056 | alisertib -0.042 | [5] 0.006 | gefitinib -0.037 | [6] 0.058 | lapatinib -0.007 | pictilisib 0.059

ACLY (UniProt P53396)
inactive: saracatinib 0.018 | sotrastaurin 0.036 | alvocidib -0.035 | Tubastatin A -0.016 | [1] -0.006 | defactinib -0.01 | rucaparib -0.019 | [2] -0.035 | encorafenib -0.001 | [3] -0.004 | [4] -0.026 | filanesib -0.043 | zotarolimus 0.028 | idasanutlin -0.009 | alisertib -0.049 | [5] 0.02 | gefitinib -0.003 | [6] 0.009 | lapatinib -0.02 | pictilisib 0.032

ACTB, A0A2R8Y793
inactive: saracatinib 0.021 | sotrastaurin 0.013 | alvocidib -0.046 | Tubastatin A -0.034 | [1] -0.014 | defactinib -0.014 | rucaparib -0.012 | [2] -0.048 | encorafenib 0 | [3] 0.021 | [4] 0.075 | filanesib 0.004 | zotarolimus 0.037 | idasanutlin -0.036 | alisertib -0.039 | [5] 0.015 | gefitinib -0.013 | [6] 0.035 | lapatinib -0.028 | pictilisib -0.063

ACTR3 (UniProt P61158)
inactive: saracatinib 0.1 | sotrastaurin 0.014 | alvocidib 0.035 | Tubastatin A -0.027 | [1] 0.02 | defactinib -0.018 | rucaparib -0.038 | [2] -0.062 | encorafenib 0.001 | [3] 0.008 | [4] -0.006 | filanesib 0.008 | zotarolimus -0.007 | idasanutlin -0.005 | alisertib -0.093 | [5] 0.025 | gefitinib -0.001 | [6] 0.055 | lapatinib -0.025 | pictilisib -0.036

ACTL8 (UniProt Q9H568)
inactive: saracatinib 0.084 | sotrastaurin 0.119 | alvocidib -0.037 | Tubastatin A -0.006 | [1] -0.011 | defactinib -0.01 | rucaparib -0.05 | [2] 0.004 | encorafenib -0.022 | [3] 0.03 | [4] -0.018 | filanesib 0.093 | zotarolimus -0.039 | idasanutlin -0.037 | alisertib -0.017 | [5] 0.022 | gefitinib 0.054 | [6] 0.044 | lapatinib 0.001 | pictilisib -0.141

ACAA2 (UniProt P42765)
inactive: saracatinib 0.062 | sotrastaurin 0.03 | alvocidib -0.008 | Tubastatin A -0.002 | [1] -0.039 | defactinib 0.004 | rucaparib -0.009 | [2] -0.046 | encorafenib -0.043 | [3] 0.012 | [4] 0.024 | filanesib -0.01 | zotarolimus -0.03 | idasanutlin -0.004 | alisertib -0.008 | [5] 0.009 | gefitinib -0.002 | [6] 0.081 | lapatinib -0.044 | pictilisib 0.036

ACTR10 (UniProt Q9NZ32)
inactive: saracatinib -0.001 | sotrastaurin -0.012 | alvocidib 0.059 | Tubastatin A -0.002 | [1] 0.001 | defactinib -0.029 | rucaparib -0.034 | [2] -0.007 | encorafenib 0.017 | [3] 0.038 | [4] 0.052 | filanesib 0 | zotarolimus -0.085 | idasanutlin -0.045 | alisertib -0.07 | [5] 0.034 | gefitinib -0.001 | [6] 0.008 | lapatinib -0.003 | pictilisib -0.057

ABHD12 isoform 2 (UniProt Q8N2K0)
inactive: saracatinib -0.067 | sotrastaurin -0.013 | alvocidib -0.063 | Tubastatin A 0.032 | [1] 0.014 | defactinib 0.021 | rucaparib 0.06 | [2] 0.004 | encorafenib 0.066 | [3] -0.001 | [4] 0.002 | filanesib 0.003 | zotarolimus 0.019 | idasanutlin 0.119 | alisertib -0.035 | [5] -0.016 | gefitinib -0.101 | [6] -0.056 | lapatinib 0.143 | pictilisib 0.021

ACO1 (UniProt P21399)
inactive: saracatinib 0.036 | sotrastaurin 0.037 | alvocidib -0.057 | Tubastatin A -0.054 | [1] 0.008 | defactinib -0.008 | rucaparib -0.048 | [2] -0.017 | encorafenib 0.019 | [3] -0.003 | [4] -0.004 | filanesib -0.035 | zotarolimus 0.004 | idasanutlin -0.033 | alisertib 0.003 | [5] -0.017 | gefitinib -0.005 | [6] 0.05 | lapatinib 0.036 | pictilisib 0.002

ABCF1 (UniProt Q8NE71)
inactive: saracatinib -0.081 | sotrastaurin 0.015 | alvocidib 0.114 | Tubastatin A -0.005 | [1] 0.05 | defactinib 0.177 | rucaparib 0.213 | [2] 0.037 | encorafenib 0.08 | [3] -0.004 | [4] -0.061 | filanesib 0.224 | zotarolimus 0.025 | idasanutlin 0.076 | alisertib -0.071 | [5] 0.059 | gefitinib -0.027 | [6] -0.1 | lapatinib 0.053 | pictilisib 0.032

AASDHPPT (UniProt Q9NRN7)
inactive: saracatinib 0.003 | sotrastaurin 0.002 | alvocidib -0.025 | Tubastatin A -0.006 | [1] -0.009 | defactinib -0.021 | rucaparib -0.039 | [2] -0.069 | encorafenib 0.026 | [3] 0.013 | [4] -0.067 | filanesib 0.003 | zotarolimus 0.018 | idasanutlin -0.041 | alisertib -0.074 | [5] 0.067 | gefitinib -0.006 | [6] -0.001 | lapatinib -0.032 | pictilisib 0.058

Two neighbouring records out of the list so far, for reference:
ABHD12 isoform 2 (UniProt Q8N2K0)
inactive: saracatinib -0.067 | sotrastaurin -0.013 | alvocidib -0.063 | Tubastatin A 0.032 | [1] 0.014 | defactinib 0.021 | rucaparib 0.06 | [2] 0.004 | encorafenib 0.066 | [3] -0.001 | [4] 0.002 | filanesib 0.003 | zotarolimus 0.019 | idasanutlin 0.119 | alisertib -0.035 | [5] -0.016 | gefitinib -0.101 | [6] -0.056 | lapatinib 0.143 | pictilisib 0.021

ACO1 (UniProt P21399)
inactive: saracatinib 0.036 | sotrastaurin 0.037 | alvocidib -0.057 | Tubastatin A -0.054 | [1] 0.008 | defactinib -0.008 | rucaparib -0.048 | [2] -0.017 | encorafenib 0.019 | [3] -0.003 | [4] -0.004 | filanesib -0.035 | zotarolimus 0.004 | idasanutlin -0.033 | alisertib 0.003 | [5] -0.017 | gefitinib -0.005 | [6] 0.05 | lapatinib 0.036 | pictilisib 0.002

Next part:

ADAM9 (UniProt Q13443)
inactive: saracatinib 0.048 | sotrastaurin 0.044 | alvocidib 0.006 | Tubastatin A -0.009 | [1] -0.022 | defactinib -0.01 | rucaparib -0.006 | [2] -0.046 | encorafenib 0.003 | [3] 0.024 | [4] -0.012 | filanesib 0.023 | zotarolimus -0.075 | idasanutlin -0.003 | alisertib -0.017 | [5] 0.111 | gefitinib 0.009 | [6] 0.005 | lapatinib -0.028 | pictilisib 0.09

ACSS1 (UniProt Q9NUB1)
inactive: saracatinib -0.035 | sotrastaurin -0.033 | alvocidib -0.068 | Tubastatin A -0.012 | [1] 0.113 | defactinib -0.04 | rucaparib 0.023 | [2] 0.017 | encorafenib 0.021 | [3] -0.003 | [4] -0.051 | filanesib -0.102 | zotarolimus -0.046 | idasanutlin -0.036 | alisertib 0.024 | [5] 0.002 | gefitinib 0.023 | [6] 0.162 | lapatinib 0.001 | pictilisib -0.082
